Results taken from PMC7819943, “Rice protein-binding microarrays: a tool to detect cis-acting elements near promoter regions in rice”.
This is one part of the list.

Amino acid sequences for entries named in this document (tags omitted).
UniProt Q0JBA9, entry or part of it: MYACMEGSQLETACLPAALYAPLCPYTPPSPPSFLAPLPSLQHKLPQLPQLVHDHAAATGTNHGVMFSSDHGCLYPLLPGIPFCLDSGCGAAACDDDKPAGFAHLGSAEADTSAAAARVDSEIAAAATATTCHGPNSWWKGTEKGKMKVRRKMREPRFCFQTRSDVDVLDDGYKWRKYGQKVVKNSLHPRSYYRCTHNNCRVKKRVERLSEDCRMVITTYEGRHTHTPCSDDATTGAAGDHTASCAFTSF

Target: OsWRKY34 (Oryza sativa, UniProt Q0JBA9 1-250)
Assay: protein-binding microarray (RPBM); PBS, 2% BSA, 51.3 ng/ul salmon testes DNA, 50 uM zinc acetate, 200 nM TF, 25 C, 1 h; high values mean tight binding
Details: protein: recombinant; tags: N-terminal polyhistidine and DsRed monomer fusion (pET32a); label: CyDye5-dUTP incorporated in the synthesized complementary strand; 3' TTTTT single-stranded linker to array surface; dsDNA, one strand shown
In short: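 The binding signal for each feature is its fluorescence intensity in arbitrary units. An Axon 4000B scanner was used to read a custom Agilent array that had been made double-stranded with Cy5-dUTP primer extension, blocked with 2% BSA, incubated at 25 °C for 1 h with 200 nM protein in PBS, 2% BSA, salmon testes DNA and 50 µM zinc acetate, and washed. The protein was an N-terminal polyhistidine–DsRed transcription factor fusion from E. coli BL21-CodonPlus, purified on Ni–NTA.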

Compared with “AGAGCAGGTCGCCGGAACCTCTGCCTTCGACGTCCTGCACCGGAGTCACCTAGTGCAG”, “ACATGTGGGCCCCACATATTTATTTTTTTATTTTTTGCTGCGGAGTCACCTAGTGCAG” is lower in binding signal: 14200 fluorescence intensity (a.u.) for the first, 8380 fluorescence intensity (a.u.) for the second.

Compared with “ATGTGGGTAGTGTCGAAAGTGTCGGCGACACGCTCCAGTGCGGAGTCACCTAGTGCAG”, “AACTCTGGCACGATTTTTTTTATTGCAGTTTTCGTCGGATCGGAGTCACCTAGTGCAG” is higher in binding signal: 8410 fluorescence intensity (a.u.) for the first, 11400 fluorescence intensity (a.u.) for the second.

Compared with “CCACCACCGGCCTCGCCGCCGGCTCATCGGTTCTCGAGTACGGAGTCACCTAGTGCAG”, “TCCTCTCTGCGCGGCTACCCTCCTTCTCTCAAATCCGGATCGGAGTCACCTAGTGCAG” is lower in binding signal: 8740 fluorescence intensity (a.u.) for the first, 8070 fluorescence intensity (a.u.) for the second.

Going from “ATTTTATACCCTTATGATCGCCCTCATTCTCTCTCGCCTACGGAGTCACCTAGTGCAG” to “TTTGATTCCAACTTTTTTCTTCAAACTTTTAACTTTTCCGCGGAGTCACCTAGTGCAG”, the binding signal falls from 8840 fluorescence intensity (a.u.) to 8020 fluorescence intensity (a.u.).

First: CGTGGGAACGAATCTTCTCACATGTTCGTGCGCCGTCACTCGGAGTCACCTAGTGCAG
Second: CCTGCTGCCTATATTTGTCCAATTCGACACCGATCGATCACGGAGTCACCTAGTGCAG
The binding signal of the first is higher: 8620 fluorescence intensity (a.u.) for the first, 8120 fluorescence intensity (a.u.) for the second.

Going from “ATTTGACGACCACCGTTATTTATGTCACCGGATTTGGCCACGGAGTCACCTAGTGCAG” to “GCTGTCACATCGGATGTTTGACCGGATGTCGGAAGGGGTTCGGAGTCACCTAGTGCAG”, the binding signal rises from 8160 fluorescence intensity (a.u.) to 9670 fluorescence intensity (a.u.).

First: ATAAAAGTGAGAGTACCAACACACTCGGCGCGCTCTTGTACGGAGTCACCTAGTGCAG
Second: TACCCCGCCGCCGCGTCCTAGATTGCCGCCGTTCCCTAAACGGAGTCACCTAGTGCAG
The binding signal of the first is lower: 8460 fluorescence intensity (a.u.) for the first, 9920 fluorescence intensity (a.u.) for the second.

Going from “CCGTTCCGCGACGAGGTGCTCACGGCCACACATTTCTCCACGGAGTCACCTAGTGCAG” to “ATTTGTGTGTATGAAAAATGGGTCCCGCTCGTATTTCTTTCGGAGTCACCTAGTGCAG”, the binding signal rises from 9040 fluorescence intensity (a.u.) to 9220 fluorescence intensity (a.u.).

Compared with “AACTGCGCAGCTTTTCTGAGTTCTCTTCTTCCTTTTATTCCGGAGTCACCTAGTGCAG”, “CTTGAACTCTGGGTCCTTCACGTTTATGATTTGTTCAGATCGGAGTCACCTAGTGCAG” is lower in binding signal: 11000 fluorescence intensity (a.u.) for the first, 8050 fluorescence intensity (a.u.) for the second.

First: TTTGCAACATTTGATTACTCGTCTTATTTAATTTTTTTTTCGGAGTCACCTAGTGCAG
Second: CTAAACAATATGCAAAGCCTTTGACCTGCTAGCCTTTTTTCGGAGTCACCTAGTGCAG
The binding signal of the first is lower: 8230 fluorescence intensity (a.u.) for the first, 8870 fluorescence intensity (a.u.) for the second.

First: CATTTGCCTCTTGTTTTTTCACTTTAGCCGATATGAGTTTCGGAGTCACCTAGTGCAG
Second: AGCCACATCATCAATATTTTTCTTATCATTAGATTGGATTCGGAGTCACCTAGTGCAG
The binding signal of the first is higher: 9220 fluorescence intensity (a.u.) for the first, 8370 fluorescence intensity (a.u.) for the second.

First: TGAATTTGTGGTTTTTTTTGGGGAGGGTTTTTTTTTTCTTCGGAGTCACCTAGTGCAG
Second: ACATATTTTTATACGTATATTGCCTTTTATATTGTGTACACGGAGTCACCTAGTGCAG
The binding signal of the first is higher: 34600 fluorescence intensity (a.u.) for the first, 11500 fluorescence intensity (a.u.) for the second.

Compared with “CTGCGAGTCCTCCTCCTCTTCTCGTCGCCGTGCTACTCTCCGGAGTCACCTAGTGCAG”, “TTTTACTACCGTACTTTGGAGCAGCTGTTTCTATATAGACCGGAGTCACCTAGTGCAG” is higher in binding signal: 8590 fluorescence intensity (a.u.) for the first, 9430 fluorescence intensity (a.u.) for the second.

Going from “CCTTGACTTGCACCTTTGACGGAGGCGCCATCTTCGCCGCCGGAGTCACCTAGTGCAG” to “TGCAGGTGGCTCTGTGTTCCGTTCTTGTTTTGTTCCGGTTCGGAGTCACCTAGTGCAG”, the binding signal falls from 11500 fluorescence intensity (a.u.) to 10700 fluorescence intensity (a.u.).

Compared with “TCTCTTGTGCCTCACTCACTTTCATTACTGGAGAGATATGCGGAGTCACCTAGTGCAG”, “TATCTTTAACTGTTGCAACGCATGGGTATTTTTTTCTAGTCGGAGTCACCTAGTGCAG” is lower in binding signal: 9840 fluorescence intensity (a.u.) for the first, 9050 fluorescence intensity (a.u.) for the second.

Compared with “AAAAAAACTAGGACTCACTCCGTTTCACAATGTAAGTCATCGGAGTCACCTAGTGCAG”, “TACCACACAGCCAGCTCAGAATTTCCAACCTGAATTGCAACGGAGTCACCTAGTGCAG” is lower in binding signal: 8330 fluorescence intensity (a.u.) for the first, 8260 fluorescence intensity (a.u.) for the second.

Going from “GCCAGTACGTCATCCGCCAACTCATCCAAATTTGTGTTTACGGAGTCACCTAGTGCAG” to “ATCAGTATGGACTCTAGTTTCCTATTCATATATTCCTTATCGGAGTCACCTAGTGCAG”, the binding signal falls from 14000 fluorescence intensity (a.u.) to 8280 fluorescence intensity (a.u.).

First: TCAGTCACACTCAACTTTATCAGCCCGTCAGGTCCATTGACGGAGTCACCTAGTGCAG
Second: CCATGGGTATGGGTTTAGGCAAGGGGTGGGCGGCAGGGATCGGAGTCACCTAGTGCAG
The binding signal of the first is lower: 9050 fluorescence intensity (a.u.) for the first, 15300 fluorescence intensity (a.u.) for the second.

Compared with “CGGTGGACTGGTGGTTTTTGCGGGGTTGCAGAATTTGGTGCGGAGTCACCTAGTGCAG”, “TGCTTGACCGAAATTGGAGGTCACTGGGGCAATGCTAGCTCGGAGTCACCTAGTGCAG” is higher in binding signal: 9390 fluorescence intensity (a.u.) for the first, 9600 fluorescence intensity (a.u.) for the second.

Going from “GGTGGGAGTGCGCATTGAGGATAAGCCACTGATGACGTCTCGGAGTCACCTAGTGCAG” to “GGAACCCGCCAAGCGAAACACACCCTCTTCTCTTCGTCAACGGAGTCACCTAGTGCAG”, the binding signal falls from 8600 fluorescence intensity (a.u.) to 8150 fluorescence intensity (a.u.).

Compared with “TTCATAAGGTGGTGGGCTAGACGATCTGGGTTCGAAGTATCGGAGTCACCTAGTGCAG”, “TCTTTTTATAGTCACTTCCCTTTAGGAGTGTATTTATTATCGGAGTCACCTAGTGCAG” is higher in binding signal: 8300 fluorescence intensity (a.u.) for the first, 8550 fluorescence intensity (a.u.) for the second.
